# Source: publication PMC7788286
# Chains of the proteins cited; added tags and fusions are not shown.
# UniProt P35637: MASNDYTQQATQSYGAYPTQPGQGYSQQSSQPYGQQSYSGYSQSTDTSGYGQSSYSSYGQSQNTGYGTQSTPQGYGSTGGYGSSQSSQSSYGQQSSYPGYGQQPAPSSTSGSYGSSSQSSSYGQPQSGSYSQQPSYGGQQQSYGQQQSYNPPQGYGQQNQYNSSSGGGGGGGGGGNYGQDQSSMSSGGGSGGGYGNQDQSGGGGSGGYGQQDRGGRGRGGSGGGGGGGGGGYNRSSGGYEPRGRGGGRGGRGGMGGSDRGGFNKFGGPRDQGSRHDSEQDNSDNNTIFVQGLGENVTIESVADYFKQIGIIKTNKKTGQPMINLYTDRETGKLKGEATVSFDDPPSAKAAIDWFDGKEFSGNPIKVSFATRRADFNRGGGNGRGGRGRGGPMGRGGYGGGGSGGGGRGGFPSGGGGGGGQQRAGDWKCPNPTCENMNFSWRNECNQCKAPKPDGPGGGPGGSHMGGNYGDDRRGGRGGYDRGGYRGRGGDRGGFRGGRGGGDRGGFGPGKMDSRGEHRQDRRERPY
# UniProt P51784: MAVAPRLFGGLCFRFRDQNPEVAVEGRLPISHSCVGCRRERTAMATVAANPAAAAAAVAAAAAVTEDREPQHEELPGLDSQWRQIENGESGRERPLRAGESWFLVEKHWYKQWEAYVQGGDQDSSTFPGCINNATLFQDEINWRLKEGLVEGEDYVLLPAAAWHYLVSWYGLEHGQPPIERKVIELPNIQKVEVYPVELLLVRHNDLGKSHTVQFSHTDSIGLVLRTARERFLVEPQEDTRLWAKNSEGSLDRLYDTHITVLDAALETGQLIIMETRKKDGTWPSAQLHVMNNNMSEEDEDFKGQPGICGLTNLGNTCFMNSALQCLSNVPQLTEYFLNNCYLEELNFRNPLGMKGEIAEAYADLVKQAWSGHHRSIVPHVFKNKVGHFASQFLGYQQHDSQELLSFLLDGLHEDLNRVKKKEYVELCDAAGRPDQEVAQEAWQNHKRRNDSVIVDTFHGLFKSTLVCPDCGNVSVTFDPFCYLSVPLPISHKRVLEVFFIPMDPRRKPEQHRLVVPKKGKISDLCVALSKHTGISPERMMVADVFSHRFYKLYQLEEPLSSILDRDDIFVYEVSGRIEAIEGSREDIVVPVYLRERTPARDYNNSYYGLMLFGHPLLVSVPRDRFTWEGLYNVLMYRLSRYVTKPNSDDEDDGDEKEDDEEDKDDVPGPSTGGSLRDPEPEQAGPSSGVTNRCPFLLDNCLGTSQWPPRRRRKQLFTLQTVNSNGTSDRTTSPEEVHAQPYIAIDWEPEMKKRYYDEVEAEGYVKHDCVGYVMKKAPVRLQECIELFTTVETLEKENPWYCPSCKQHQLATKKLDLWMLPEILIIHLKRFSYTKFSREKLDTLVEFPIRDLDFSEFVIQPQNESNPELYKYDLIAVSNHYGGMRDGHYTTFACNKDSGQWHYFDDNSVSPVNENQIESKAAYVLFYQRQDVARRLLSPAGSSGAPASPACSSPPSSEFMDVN
# Results are given in words; binding and its absence hold for the method and conditions named. Binding seen in cells or lysates may run through a third protein. These calls come from enrichment with a bait or labelling near it, and not all partners need be listed.
# T1: ubiquitin-specific protease 15 (USP15) (human (endogenous in MV4-11 and Kasumi-1)) (UniProt Q9Y4E8)
# T1 sequence: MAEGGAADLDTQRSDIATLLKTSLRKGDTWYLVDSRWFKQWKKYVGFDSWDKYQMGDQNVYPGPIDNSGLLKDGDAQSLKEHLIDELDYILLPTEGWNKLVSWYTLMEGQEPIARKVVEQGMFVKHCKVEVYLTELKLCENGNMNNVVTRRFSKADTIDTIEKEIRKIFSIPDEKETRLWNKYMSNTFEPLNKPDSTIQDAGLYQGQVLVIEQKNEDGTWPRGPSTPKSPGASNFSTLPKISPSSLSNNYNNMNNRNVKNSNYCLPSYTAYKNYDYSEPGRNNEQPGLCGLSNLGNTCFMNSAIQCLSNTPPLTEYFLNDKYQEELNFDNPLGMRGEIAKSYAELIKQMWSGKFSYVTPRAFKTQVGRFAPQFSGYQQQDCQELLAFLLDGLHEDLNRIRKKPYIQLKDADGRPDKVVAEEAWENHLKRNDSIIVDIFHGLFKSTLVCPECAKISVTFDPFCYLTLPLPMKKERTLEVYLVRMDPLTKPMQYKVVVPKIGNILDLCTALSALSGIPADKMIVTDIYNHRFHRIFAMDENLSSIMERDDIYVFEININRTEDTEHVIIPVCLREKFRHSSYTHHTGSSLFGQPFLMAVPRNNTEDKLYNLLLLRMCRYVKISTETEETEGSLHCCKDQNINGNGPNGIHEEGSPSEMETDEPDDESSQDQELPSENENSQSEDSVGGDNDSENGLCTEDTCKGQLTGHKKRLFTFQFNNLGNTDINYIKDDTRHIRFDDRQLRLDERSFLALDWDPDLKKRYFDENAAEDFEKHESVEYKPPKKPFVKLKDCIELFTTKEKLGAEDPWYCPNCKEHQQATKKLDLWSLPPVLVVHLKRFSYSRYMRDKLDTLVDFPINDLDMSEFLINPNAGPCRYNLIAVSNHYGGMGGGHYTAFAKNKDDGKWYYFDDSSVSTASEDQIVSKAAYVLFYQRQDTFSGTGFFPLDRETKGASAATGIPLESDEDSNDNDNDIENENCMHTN
# Molecular target: T1, ubiquitin-specific protease 15 (USP15) (human (endogenous in MV4-11 and Kasumi-1))
# Assay: affinity purification with mass spectrometry; endogenous USP15 immunoprecipitated (ab71713, protein A Dynabeads) from sonicated RIPA lysates of MV4-11 and Kasumi-1 cells, untreated or treated with 30 nM MMC for 1 h; on-bead tryptic digest, label-free LC-MS/MS; compared to IgG, n = 4/condition
row,binding,Molecule
1,binds,FUS (fused in sarcoma) (from UniProt P35637 1-526)
2,binds,USP11 (from UniProt P51784 1-963) (enzyme)
3,binds,"MCM5 (protein, UniProt P33992 1-734) MSGFDDPGIFYSDSFGGDAQADEGQARKSQLQRRFKEFLRQYRVGTDRTGFTFKYRDELKRHYNLGEYWIEVEMEDLASFDEDLADYLYKQPAEHLQLLEEAAKEVADEVTRPRPSGEEVLQDIQVMLKSDASPSSIRSLKSDMMSHLVKIPGIIIAASAVRAKATRISIQCRSCRNTLTNIAMRPGLEGYALPRKCNTDQAGRPKCPLDPYFIMPDKCKCVDFQTLKLQELPDAVPHGEMPRHMQLYCDRYLCDKVVPGNRVTIMGIYSIKKFGLTTSRGRDRVGVGIRSSYIRVLGIQVDTDGSGRSFAGAVSPQEEEEFRRLAALPNVYEVISKSIAPSIFGGTDMKKAIACLLFGGSRKRLPDGLTRRGDINLLMLGDPGTAKSQLLKFVEKCSPIGVYTSGKGSSAAGLTASVMRDPSSRNFIMEGGAMVLADGGVVCIDEFDKMREDDRVAIHEAMEQQTISIAKAGITTTLNSRCSVLAAANSVFGRWDETKGEDNIDFMPTILSRFDMIFIVKDEHNEERDVMLAKHVITLHVSALTQTQAVEGEIDLAKLKKFIAYCRVKCGPRLSAEAAEKLKNRYIIMRSGARQHERDSDRRSSIPITVRQLEAIVRIAEALSKMKLQPFATEADVEEALRLFQVSTLDAALSGTLSGVEGFTSQEDQEMLSRIEKQLKRRFAIGSQVSEHSIIKDFTKQKYPEHAIHKVLQLMLRRGEIQHRMQRKVLYRLK"
4,binds,"USP4 (enzyme, UniProt Q13107 1-963) MAEGGGCRERPDAETQKSELGPLMRTTLQRGAQWYLIDSRWFKQWKKYVGFDSWDMYNVGEHNLFPGPIDNSGLFSDPESQTLKEHLIDELDYVLVPTEAWNKLLNWYGCVEGQQPIVRKVVEHGLFVKHCKVEVYLLELKLCENSDPTNVLSCHFSKADTIATIEKEMRKLFNIPAERETRLWNKYMSNTYEQLSKLDNTVQDAGLYQGQVLVIEPQNEDGTWPRQTLQSKSSTAPSRNFTTSPKSSASPYSSVSASLIANGDSTSTCGMHSSGVSRGGSGFSASYNCQEPPSSHIQPGLCGLGNLGNTCFMNSALQCLSNTAPLTDYFLKDEYEAEINRDNPLGMKGEIAEAYAELIKQMWSGRDAHVAPRMFKTQVGRFAPQFSGYQQQDSQELLAFLLDGLHEDLNRVKKKPYLELKDANGRPDAVVAKEAWENHRLRNDSVIVDTFHGLFKSTLVCPECAKVSVTFDPFCYLTLPLPLKKDRVMEVFLVPADPHCRPTQYRVTVPLMGAVSDLCEALSRLSGIAAENMVVADVYNHRFHKIFQMDEGLNHIMPRDDIFVYEVCSTSVDGSECVTLPVYFRERKSRPSSTSSASALYGQPLLLSVPKHKLTLESLYQAVCDRISRYVKQPLPDEFGSSPLEPGACNGSRNSCEGEDEEEMEHQEEGKEQLSETEGSGEDEPGNDPSETTQKKIKGQPCPKRLFTFSLVNSYGTADINSLAADGKLLKLNSRSTLAMDWDSETRRLYYDEQESEAYEKHVSMLQPQKKKKTTVALRDCIELFTTMETLGEHDPWYCPNCKKHQQATKKFDLWSLPKILVVHLKRFSYNRYWRDKLDTVVEFPIRGLNMSEFVCNLSARPYVYDLIAVSNHYGAMGVGHYTAYAKNKLNGKWYYFDDSNVSLASEDQIVTKAAYVLFYQRRDDEFYKTPSLSSSGSSDGGTRPSSSQQGFGDDEACSMDTN"
5,binds,"CHMP4B (protein, UniProt Q9H444 1-224) MSVFGKLFGAGGGKAGKGGPTPQEAIQRLRDTEEMLSKKQEFLEKKIEQELTAAKKHGTKNKRAALQALKRKKRYEKQLAQIDGTLSTIEFQREALENANTNTEVLKNMGYAAKAMKAAHDNMDIDKVDELMQDIADQQELAEEISTAISKPVGFGEEFDEDELMAELEELEQEELDKNLLEISGPETVPLPNVPSIALPSKPAKKKEEEDDDMKELENWAGSM"
